According to paper PMC5428432:
These are yes or no findings as the source states them, for the method shown. For some of these results: Binding seen in cells or lysates may run through a third protein. Some binding calls cover weakened binding; strength is not graded here.

Amino acid sequences for entries named in this document (tags omitted).
UniProt O95069: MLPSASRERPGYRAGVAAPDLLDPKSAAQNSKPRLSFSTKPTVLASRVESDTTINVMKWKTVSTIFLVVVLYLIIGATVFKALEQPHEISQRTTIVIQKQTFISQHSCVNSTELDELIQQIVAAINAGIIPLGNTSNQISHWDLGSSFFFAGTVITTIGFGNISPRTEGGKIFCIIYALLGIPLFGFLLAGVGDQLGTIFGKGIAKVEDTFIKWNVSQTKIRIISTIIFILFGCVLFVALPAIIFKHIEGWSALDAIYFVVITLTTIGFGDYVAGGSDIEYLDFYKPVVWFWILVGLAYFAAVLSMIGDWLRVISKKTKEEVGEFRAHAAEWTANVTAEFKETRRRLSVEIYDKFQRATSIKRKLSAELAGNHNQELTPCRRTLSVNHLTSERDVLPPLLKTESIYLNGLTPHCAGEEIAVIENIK

T1: cochlin (in human TM samples) (human (endogenous in human TM)) (UniProt O43405)
T1 sequence: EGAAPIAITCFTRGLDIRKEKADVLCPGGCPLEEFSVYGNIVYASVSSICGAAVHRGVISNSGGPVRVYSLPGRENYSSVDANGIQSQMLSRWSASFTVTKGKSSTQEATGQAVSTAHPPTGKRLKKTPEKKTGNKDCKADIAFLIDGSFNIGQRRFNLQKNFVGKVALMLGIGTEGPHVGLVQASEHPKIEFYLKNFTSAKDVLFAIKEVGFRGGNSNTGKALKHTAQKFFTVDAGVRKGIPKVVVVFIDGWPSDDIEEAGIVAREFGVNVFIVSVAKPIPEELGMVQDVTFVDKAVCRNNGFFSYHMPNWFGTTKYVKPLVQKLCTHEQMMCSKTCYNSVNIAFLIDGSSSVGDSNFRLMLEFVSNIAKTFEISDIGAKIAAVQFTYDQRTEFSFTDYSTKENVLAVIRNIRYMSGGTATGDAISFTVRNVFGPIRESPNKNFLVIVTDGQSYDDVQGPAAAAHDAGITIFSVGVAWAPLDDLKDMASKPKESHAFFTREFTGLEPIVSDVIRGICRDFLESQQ

T2: cochlin (purified, exogenous) (human) (UniProt O43405)
T2 sequence: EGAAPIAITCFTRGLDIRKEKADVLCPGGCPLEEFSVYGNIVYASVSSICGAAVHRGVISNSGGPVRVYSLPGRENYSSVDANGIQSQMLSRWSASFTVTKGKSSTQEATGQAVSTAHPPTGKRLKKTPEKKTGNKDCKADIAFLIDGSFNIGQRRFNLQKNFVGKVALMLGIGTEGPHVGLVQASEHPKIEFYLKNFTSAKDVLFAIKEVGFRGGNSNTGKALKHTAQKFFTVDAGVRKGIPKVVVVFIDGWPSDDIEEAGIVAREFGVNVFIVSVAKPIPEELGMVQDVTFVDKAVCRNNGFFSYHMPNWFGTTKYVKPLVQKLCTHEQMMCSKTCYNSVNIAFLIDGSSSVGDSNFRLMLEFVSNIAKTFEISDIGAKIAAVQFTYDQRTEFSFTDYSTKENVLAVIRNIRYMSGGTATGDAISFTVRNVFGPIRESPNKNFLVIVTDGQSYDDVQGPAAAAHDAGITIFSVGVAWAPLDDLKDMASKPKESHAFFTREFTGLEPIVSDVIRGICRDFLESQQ

T3: cochlin (purified, exogenous) (human), O43405
T3 chain: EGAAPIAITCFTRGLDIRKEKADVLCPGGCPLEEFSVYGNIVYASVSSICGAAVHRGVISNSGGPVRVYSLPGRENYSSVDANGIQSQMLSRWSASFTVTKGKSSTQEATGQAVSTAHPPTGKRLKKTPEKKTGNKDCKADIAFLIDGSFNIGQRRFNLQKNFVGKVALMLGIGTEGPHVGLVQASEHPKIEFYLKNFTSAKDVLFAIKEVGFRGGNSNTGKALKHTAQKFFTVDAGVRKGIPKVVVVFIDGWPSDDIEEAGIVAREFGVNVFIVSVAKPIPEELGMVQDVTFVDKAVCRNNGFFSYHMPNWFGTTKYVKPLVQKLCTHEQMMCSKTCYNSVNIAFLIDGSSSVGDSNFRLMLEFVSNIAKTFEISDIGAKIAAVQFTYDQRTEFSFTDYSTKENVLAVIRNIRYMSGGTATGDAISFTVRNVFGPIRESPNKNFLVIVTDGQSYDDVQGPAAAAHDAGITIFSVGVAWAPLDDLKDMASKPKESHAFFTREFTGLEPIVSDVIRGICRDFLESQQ


Key:
[1] = biological target: T1, cochlin (in human TM samples) (human (endogenous in human TM)); experiment: co-IP; human TM samples, normal and glaucomatous; reciprocal immunoprecipitation with anti-cochlin or anti-TREK-1 antibody on Protein A/G magnetic beads; Western blot
[2] = biological target: T2, cochlin (purified, exogenous) (human); experiment: co-IP; 1-2 ug purified cochlin, native (monomeric, no shear stress), added to 100 ug human TM protein extract (50 mM Tris-HCl pH 7.5, 125 mM NaCl, 0.1% genapol), 2 h room temperature; anti-cochlin (hCochlin#3) antibody on Protein A/G magnetic beads; Western blot for TREK-1; only the target purified
[3] = biological target: T2, cochlin (purified, exogenous) (human); experiment: co-IP; 1-2 ug purified cochlin multimerized by shear stress (30-gauge needle, 10-20 passes) added to 100 ug human TM protein extract (50 mM Tris-HCl pH 7.5, 125 mM NaCl, 0.1% genapol), 2 h room temperature; anti-cochlin (hCochlin#3) antibody on Protein A/G magnetic beads; Western blot for TREK-1; only the target purified
[4] = biological target: T3, cochlin (purified, exogenous) (human), …; experiment: non-reducing denaturing gel with Western blot; about 10 ug purified cochlin passed through a 30-gauge needle 10-20 times (shear stress); 4-20% Tris-glycine gel, non-reducing but denaturing; blot probed for cochlin; both purified; conditions: remark: other sources report otherwise

Row | binding [1] | binding [2] | binding [3] | binding [4] | Molecule
1 | binds | binds | binds |  | TREK-1 (stretch-activated K+ channel) (from UniProt O95069 1-426)
2 |  |  |  | binds | cochlin (purified, exogenous), O43405-1 25-550 (protein) EGAAPIAITCFTRGLDIRKEKADVLCPGGCPLEEFSVYGNIVYASVSSICGAAVHRGVISNSGGPVRVYSLPGRENYSSVDANGIQSQMLSRWSASFTVTKGKSSTQEATGQAVSTAHPPTGKRLKKTPEKKTGNKDCKADIAFLIDGSFNIGQRRFNLQKNFVGKVALMLGIGTEGPHVGLVQASEHPKIEFYLKNFTSAKDVLFAIKEVGFRGGNSNTGKALKHTAQKFFTVDAGVRKGIPKVVVVFIDGWPSDDIEEAGIVAREFGVNVFIVSVAKPIPEELGMVQDVTFVDKAVCRNNGFFSYHMPNWFGTTKYVKPLVQKLCTHEQMMCSKTCYNSVNIAFLIDGSSSVGDSNFRLMLEFVSNIAKTFEISDIGAKIAAVQFTYDQRTEFSFTDYSTKENVLAVIRNIRYMSGGTATGDAISFTVRNVFGPIRESPNKNFLVIVTDGQSYDDVQGPAAAAHDAGITIFSVGVAWAPLDDLKDMASKPKESHAFFTREFTGLEPIVSDVIRGICRDFLESQQ
